Laboratory results published in patent publication US8992444B2, “Devices, systems, and methods for determining isometric and isotonic activity of luminal organs” (DTherapeutics, LLC, priority 2005, dated 2015).
At least one compound was matched to its structure with a doubt left.

Key:
[1] = system: aorta, femoral artery, and mesenteric artery; experiment: isovolumic myography, dose-dependent vasoconstriction and vasodilatation; set-up: species or system Wistar male rats
Protocol: Animals and tissue preparation. […] Six aorta, six femoral arteries, and six mesenteric arteries were harvested from eighteen rats. The animals were acclimated to the testing facility for approximately one week prior to the start of the study. On the day of termination, each animal was first anesthetized with sodium pentobarbital (80 mg/kg, i.p.) and euthanized by overanesthesia with sodium pentobarbital ([…], i.p.). Either the aorta, common femoral artery, or mesenteric artery were excised quickly and placed in ice-cold physiological saline solution (PSS in mmole/L: 119 NaCl, 4.7 KCl, 25 NaHCO3, 1.17 KH2PO4, 1.17 MgSO4, 1.6 CaCl, 5.5 Dextrose, solution gassed by 95% O2/5% CO2). The artery was carefully cleaned from adjacent tissue with the aid of a stereo-dissection microscope. The branches on the artery were ligated and the artery was allowed to warm up to room temperature (22° C.) slowly in approximately 10-15 min. The artery was transferred to the chamber of isovolumic system and cannulated with connectors and secured with 8-0 suture twice to avoid any leakage. The artery was warmed up to 37° C. slowly (20-25 min) and equilibrated for 40 min at a transmural pressure of 15 mmHg before agonist and antagonist stimulation.
Isovolumic myography. […]

[2] = system: femoral artery; experiment: effects of over-stretch on endothelial function of femoral artery (isovolumic myograph); set-up: species or system Wistar male rats
[3] = system: ex vivo stomach; experiment: ex vivo gastric contractility, isovolumic myograph; set-up: species or system C571/B mice; details: 10^−6 mole/l, 50 mmHg inflation pressure
[4] = system: carotid and femoral arteries; experiment: isovolumic myograph, vasoactivity of arterial segments; set-up: species or system Wistar rats; details: phenylephrine pre-constriction
Protocol: Six Wistar rats weighing 300-350 g were used in the study. The animals were anesthetized with sodium pentobarbital (60 mg/kg, ip). A heating pad was used to maintain the body temperature of the animal during anesthesia. The left carotid and common femoral arteries of the rat were exposed and cannulated for blood pressure measurements. This was done to measure the in vivo difference in blood pressure between carotid and femoral arteries. Several 1 cm segments of right carotid and femoral arteries were excised and immediately stored in 4° C. physiological saline solution (PSS).
The samples were then prepared to be tested in the exemplary isovolumic myograph according to the present disclosure as shown in FIG. 1. To prepare the samples, PSS was first contained in an organ bath with a controlled heating system and warmed to 37° C. […]
Vessel 3 and pressure transducer 5 are isolated from the pressure system when vessel 3 is pressurized and the two stopcocks 6 and 7 are closed to vessel 3. […] The changes of the pressure are recorded. […]
The dosage-dependent vasoconstriction in response to phenylephrine was recorded. The dosage- and endothelium-dependent vasodilatation in response to acetylcholine was also recorded in phenylephrine pre-constriction. The dosage-dependent and endothelium-independent vasodilatation in response to sodium nitroprusside (SNP) was recorded in phenylephrine pre-constriction. […]

CC(=O)OCC[N+](C)(C)C [acetylcholine]
vasorelaxation (stepwise reduced intraluminal pressures) ([1]; after PE contraction, 10^−10 to 10^−5 mole/l, FIG. 13A): dose-dependent vasorelaxations in response to ACh were clearly observed
maximal % Relaxation ([1]; aorta, femoral artery, mesenteric artery, FIG. 13B): identical in the three types of arteries
endothelium-dependent relaxation compared with physiologic loading ([2]; acute over-inflation (170% of physiologic pressure)): attenuated
endothelium-dependent relaxation compared with physiologic loading ([2]; axial over-elongation (118% of physiologic stretch)): attenuated
gastric contraction stimulated by external administration [3]: still high
vasodilation [4]: Dosage dependent vasodilation was observed
